Measured values published in patent WO2007014744A2 (dated 2007).
No constants are given. Whether binding was seen depends on the method and setting. Some results given as binding are weak or reduced against the parent protein; the word gives no strength.

Protein sequences, listed by entry. Tags and fused reporters are not part of them.
UniProt Q12884: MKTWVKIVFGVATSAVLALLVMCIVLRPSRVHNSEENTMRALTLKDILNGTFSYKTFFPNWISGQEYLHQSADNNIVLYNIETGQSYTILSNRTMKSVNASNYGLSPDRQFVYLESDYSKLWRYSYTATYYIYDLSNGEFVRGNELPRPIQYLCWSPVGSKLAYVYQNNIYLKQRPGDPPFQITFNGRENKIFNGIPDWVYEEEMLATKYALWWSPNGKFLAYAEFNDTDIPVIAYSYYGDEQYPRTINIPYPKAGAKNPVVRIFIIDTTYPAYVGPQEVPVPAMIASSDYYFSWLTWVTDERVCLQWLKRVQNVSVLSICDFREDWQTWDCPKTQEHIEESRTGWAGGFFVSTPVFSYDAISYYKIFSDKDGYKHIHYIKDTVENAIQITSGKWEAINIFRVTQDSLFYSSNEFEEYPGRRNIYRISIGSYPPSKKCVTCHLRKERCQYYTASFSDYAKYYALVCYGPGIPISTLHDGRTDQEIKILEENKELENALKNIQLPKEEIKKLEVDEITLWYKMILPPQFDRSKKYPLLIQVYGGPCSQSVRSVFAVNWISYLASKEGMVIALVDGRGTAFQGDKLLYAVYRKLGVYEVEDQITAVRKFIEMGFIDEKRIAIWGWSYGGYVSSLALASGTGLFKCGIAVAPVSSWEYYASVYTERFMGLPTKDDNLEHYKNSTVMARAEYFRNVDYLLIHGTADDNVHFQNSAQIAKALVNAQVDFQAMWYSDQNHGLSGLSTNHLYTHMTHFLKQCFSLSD

Molecular target: fibroblast activation protein (FAP) (UniProt Q12884)
Experiment: flow cytometry on HT1080FAP against HT1080 cells, 5 ug/ml fusion protein, anti-Flag M2 detection; binds less well than CD95-TNC-PL-SC40-CD95L

binding: binds
B1: CD95-PL-TNC-SC40-CD95L (protein)
chain: VARLSSKSVNAQVTDINSKGLELRKTVTTVETQNLEGLHHDGQFCHKPCPPGERKARDCTVNGDEPDCVPCQEGKEYTDKAHFSSKCRRCRLCDEGHGLEVEINCTRTQNTKCRCKPNFFCNSTVCEHCDPCTKCEHGIIKECTLTSNTKCKEEGSRSNHPVGLLARGGGHPVGLLARGGGHPVGLLARACGCAAAPDIKDLLSRLEELEGLVSSLREQGTGGGSQVQLVQSGGGMVEPGGSLRLSCAASGFTFSNAWMSWVRQAPGKGLEWVGRIKSKAGGGTAEYAAPVKGRFTISRDDSQNTLYLQMNSLKTDDTAVYYCTTHVYGAPRNWGQGSLVTVSSASTKGPKLEEGEFSEARVQSVLTQPPSVSAAPGQKVTISCSGSSSNIGNNYVSWYVQLPGTAPKLLIYDNNKRFSGVPDRFSGSKSGTSATLGITGLQTGDEADYYCGAWDGSLREAVFGGGTKVTVLGDYKDDDDKEKKELRKVAHLTGKSNSRSMPLEWEDTYGIVLLSGVKYKKGGLVINETGLYFVYSKVYFRGQSCNNLPLSHKVYMRNSKYPQDLVMMEGKMMSYCTTGQMWARSSYLGAVFNLTSADHLYVNVSELSLVNFEESQTFFGLYKL
